Laboratory results from publication doi:10.1101/2023.01.10.523476 (bioRxiv, 2023).
Results are given in words; binding and its absence hold for the method and conditions named. Some entries that bind do so weakly or less than the wild type. Where a sequence is shown, tags or fusion partners need not be part of it.

Biological target: GspDβ secretin (ETEC H10407 strain) with hexahistidine tag (Enterotoxigenic E. coli (ETEC) H10407 strain) (UniProt E3PJ86)
Assay: cryo-EM structure

B1: GspDβ secretin (ETEC H10407 strain) with hexahistidine tag (natural protein)
chain: EEATFTANFKDTDLKSFIETVGANLNKTIIMGPGVQGKVSIRTMTPLNERQYYQLFLNLLEAQGYAVVPMENDVLKVVKSSAAKVEPLPLVGEGSDNYAGDEMVTKVVPVRNVSVRELAPILRQMIDSAGSGNVVNYDPSNVIMLTGRASVVERLTEVIQRVDHAGNRTEEVIPLDNASASEIARVLESLTKNSGENQPATLKSQIVADERTNSVIVSGDPATRDKMRRLIRRLDSEMERSGNSQVFYLKYSKAEDLVDVLKQVSGTLTAAKEEAEGTVGSGREIVSIAASKHSNALIVTAPQDIMQSLQSVIEQLDIRRAQVHVEALIVEVAEGSNINFGVQWASKDAGLMQFANGTQIPIGTLGAAISQAKPQKGSTVISENGATTINPDTNGDLSTLAQLLSGFSGTAVGVVKGDWMALVQAVKNDSSSNVLSTPSITTLDNQEAFFMVGQDVPVLTGSTVGSNNSNPFNTVERKKVGIMLKVTPQINEGNAVQMVIEQEVSKVEGQTSLDVVFGERKLKTTVLANDGELIVLGGLMDDQAGESVAKVPLLGDIPLIGNLFKSTADKKEKRNLMVFIRPTILRDGMAADGVSQRKYNYMRAEQIYRDEQGLSLMPHTAQPVLPAQNQALPPEVRAFLNAGRTR
For B1, the binding was “binds”.
